In the supplement of paper PMC11659162 one finds cell viability and ACBP immunofluorescence intensity data, which are given here for 20 compounds.

Assay [1] concerns H4 GFP-LC3. Kind of assay: cell viability (scaled to control) (fraction of control); higher = more viable cells. Particulars: 5 µM.
Assay [2] deals with H4 GFP-LC3. The assay can be described thus: ACBP immunofluorescence intensity (scaled to control) (AU (scaled)); higher = more intracellular ACBP/DBI. To be noted: 5 µM.

The other results are listed elsewhere or left out. This is a noisy data set.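 The cells are a human neuroglioma line carrying a green fluorescent autophagy reporter.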

For the compound `CP(=O)(O)CCCN`, the cell viability in assay [1] (6 h) was 0.913; in assay [1] (24 h) it was 1.08. For the same compound, the ACBP immunofluorescence intensity in assay [2] (6 h) came out at 0.945; in assay [2] (24 h), 0.936.

For `c1ccc(CCCCN2CCC(c3ccccc3)CC2)cc1`, the figures for the cell viability in assay [1] (6 h) and in assay [1] (24 h) were 1.08 and 1.06, respectively. Further, the figures for the ACBP immunofluorescence intensity in assay [2] (6 h) and in assay [2] (24 h) were 0.897 and 0.588, respectively.

For the compound `c1ccc(CCCN2CCN(CCOC(c3ccccc3)c3ccccc3)CC2)cc1`, the cell viability in assay [1] (6 h) turned out to be 0.874; in assay [1] (24 h), 1.12. The ACBP immunofluorescence intensity in assay [2] (6 h) was determined as 0.781; in assay [2] (24 h), 0.543.

As to `Nc1ccc(CCN2CCN(c3cccc(C(F)(F)F)c3)CC2)cc1`, the cell viability in assay [1] (6 h) came out at 0.618; in assay [1] (24 h), 0.921. Moreover, the ACBP immunofluorescence intensity in assay [2] (6 h) was 0.994; in assay [2] (24 h), 0.539.

`C=CCN1C[C@H](C)N([C@@H](c2ccccc2)c2ccc(C(=O)N(CC)CC)cc2)C[C@H]1C`: the cell viability in assay [1] (6 h) came to 0.931; in assay [1] (24 h) it was 1.06. The results for the ACBP immunofluorescence intensity in assay [2] (6 h) and in assay [2] (24 h) were 0.896 and 0.678, respectively.

Take `CCCN1CCO[C@@H]2c3cc(O)ccc3OC[C@H]21`: the cell viability in assay [1] (6 h) is 0.936; in assay [1] (24 h), 1.14. The results for the ACBP immunofluorescence intensity in assay [2] (6 h) and in assay [2] (24 h) were 0.499 and 0.507, respectively.

As for `CNCCc1cnc[nH]1`, the cell viability in assay [1] (6 h) amounted to 1.09; in assay [1] (24 h), 1.06. For the same compound, the ACBP immunofluorescence intensity in assay [2] (6 h) turned out to be 0.898; in assay [2] (24 h), 0.753.

Consider `C#CCOC(=O)C1=CCCN(C)C1`, for which the cell viability in assay [1] (6 h) came to 1.06; in assay [1] (24 h), 1.29. In addition, the ACBP immunofluorescence intensity was determined as 0.913 in assay [2] (6 h) and 0.776 in assay [2] (24 h).

As for `CN(C)Cc1c[nH]c2ccccc12`, the values for the cell viability in assay [1] (6 h) and in assay [1] (24 h) were 1.01 and 1.13, respectively. Moreover, the results for the ACBP immunofluorescence intensity in assay [2] (6 h) and in assay [2] (24 h) were 0.902 and 0.556, respectively.

On to `CC(C)C[C@@H](NC(=O)[C@H](Cc1ccccc1)NC(=O)CNC(=O)[C@@H](C)NC(=O)[C@@H](N)Cc1ccc(O)cc1)C(=O)O`, for which the cell viability in assay [1] (6 h) was determined as 1.13; in assay [1] (24 h) it was 1.02. Further, the values for the ACBP immunofluorescence intensity in assay [2] (6 h) and in assay [2] (24 h) were 0.738 and 0.55, respectively.

Turning to `C[N+](C)(C)CC#CCOC(=O)Nc1cccc(Cl)c1`, the values for the cell viability in assay [1] (6 h) and in assay [1] (24 h) were 0.933 and 1.14, respectively. Further, the ACBP immunofluorescence intensity in assay [2] (6 h) came to 0.958; in assay [2] (24 h), 0.589.

For `CC[C@@H](CO)NC(=O)[C@@H]1C=C2c3cccc4[nH]cc(c34)C[C@H]2N(C)C1`, the cell viability in assay [1] (6 h) worked out at 0.698; in assay [1] (24 h), 0.927. In addition, the ACBP immunofluorescence intensity in assay [2] (6 h) came out at 1; in assay [2] (24 h) it was 0.878.

In the case of `C[C@@H](CO)NC(=O)[C@@H]1C=C2c3cccc4[nH]cc(c34)C[C@H]2N(C)C1`, the cell viability in assay [1] (6 h) came to 0.831; in assay [1] (24 h), 1.23. For the same compound, the ACBP immunofluorescence intensity came out at 0.907 in assay [2] (6 h) and 0.572 in assay [2] (24 h).

As for `C[C@@H](NC(=O)[C@@H](N)Cc1ccc(O)cc1)C(=O)NCC(=O)N(C)[C@@H](Cc1ccccc1)C(=O)N[C@H](CO)CC[S+](C)[O-]` (stereo not given in full), the cell viability in assay [1] (6 h) is 0.948; in assay [1] (24 h) it was 1.14. For the same compound, the ACBP immunofluorescence intensity came to 0.909 in assay [2] (6 h) and 0.904 in assay [2] (24 h).

`C[C@]12CC[C@H](O)CC1=CC[C@@H]1[C@@H]2CC[C@]2(C)C(=O)CC[C@@H]12`: the cell viability in assay [1] (6 h) was found to be 1.22; in assay [1] (24 h), 0.919. The values for the ACBP immunofluorescence intensity in assay [2] (6 h) and in assay [2] (24 h) were 0.775 and 0.905, respectively.

As for `COc1cccc(C2(O)CCCCC2CN(C)C)c1` (stereo not given), the cell viability amounted to 1.08 in assay [1] (6 h) and 1.01 in assay [1] (24 h). The ACBP immunofluorescence intensity in assay [2] (6 h) is 0.865; in assay [2] (24 h), 0.639.

As for `CC(NC(=O)C(N)Cc1ccc(O)cc1)C(=O)NC(Cc1ccccc1)C(=O)NC(Cc1ccccc1)C(N)=O` (stereo not given), the figures for the cell viability in assay [1] (6 h) and in assay [1] (24 h) were 0.923 and 1.22, respectively. The ACBP immunofluorescence intensity came out at 0.925 in assay [2] (6 h) and 0.948 in assay [2] (24 h).

For the compound `Oc1ccc2c3c1O[C@H]1c4oc5ccccc5c4C[C@@]4(O)[C@@H](C2)N(CC2CC2)CC[C@]314`, the values for the cell viability in assay [1] (6 h) and in assay [1] (24 h) were 1.08 and 0.864, respectively. Besides, the results for the ACBP immunofluorescence intensity in assay [2] (6 h) and in assay [2] (24 h) were 0.732 and 0.602, respectively.

Regarding `C[C@@H]1O[C@H](C[N+](C)(C)C)C[C@H]1O`, the cell viability in assay [1] (6 h) turned out to be 1.04; in assay [1] (24 h), 1.36. Besides, the ACBP immunofluorescence intensity in assay [2] (6 h) is 0.869; in assay [2] (24 h), 0.565.

With `O=C(CCCN1CCC2(CC1)C(=O)NCN2c1ccccc1)c1ccc(F)cc1`, the cell viability in assay [1] (6 h) was 0.762; in assay [1] (24 h) it was 0.806. Moreover, the values for the ACBP immunofluorescence intensity in assay [2] (6 h) and in assay [2] (24 h) were 0.91 and 0.556, respectively.
